According to patent US20230391808A1, “PHOSPHAPHENALENE-GOLD(I) COMPLEXES AS CHEMOTHERAPEUTIC AGENTS AGAINST GLIOBLASTOMA” (priority 2020, published 2023):

System: NCH82 cell line
Experiment: Drug uptake kinetics by fluorescence microscopy
Assay type: cell-based, human
Experimental: Based on the observed high bio-activity and the spectroscopic properties of Compound 6 as an example of the present invention, the drug uptake kinetics was investigated in NCH82 cell line. To this end, cells were treated with increasing concentrations of Compound 6 and its drug uptake was monitored with a fluorescence microscope (excitation/emission 350/455 nm; data not shown).
To measure the uptake kinetics of compound 6 by NCH82 cells, they were seeded in a 96-well plate (5,000 cells/well) and after 24 h, cell culture medium was replaced with compound 6 or DMSO-containing medium (0.1, 1 and 10 μM). Images were taken with a fluorescence microscope (Olympus, Shinjuku, Japan) at 1 h, 24 h and 48 h after treatment initiation. A laser with an excitation/emission spectrum of 350/455 nm was used and images were taken with a 10× objective.

Structure (SMILES): CC(=O)OC[C@H]1O[C@@H]([S][Au-][P+]2(c3ccccc3)c3ccn(C)c3-c3cccc4cccc2c34)[C@H](OC(C)=O)[C@@H](OC(C)=O)[C@@H]1OC(C)=O (stereo partly drawn) [Compound 6]
- time after which compound started to be internalized (0.1 μM): 24 h
- time after which cells started to absorb the compound (1 μM): 1 h
- time of treatment after which cells internalize the compound and start shrinking and detaching (10 μM): 1 h
